Test results as given in patent US20080044360A1.
No constants are given. Whether binding was seen depends on the method and setting. A result given as binding can be weak or reduced; the word gives no strength.

Molecular target: Type IV human collagen (human)
Test: competition in the dried collagen assay

B1: Compound ID 1014 (peptide)
peptide: KKWHCYTYFPHHYCVYG
modifications: N-terminal Gd^D; K(Gd^D) 1, 2
- binding: binds
